Where a name gives a salt, the structure may show the parent alone. This is one part of the list. Repeats in this data set agree poorly, so a single value says little.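 Human embryonic kidney cells were transiently transfected with a plasmid bearing a Renilla luciferase gene under the HSV-TK promoter. This first-round screen tests roughly ten thousand compounds for ones that increase reporter output.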

For this test, the system named is HEK 293FT. The test is described as follows: log relative Renilla luciferase luminescence (reporter expression vs reference, reference not stated) (log (base not stated)); higher = higher recombinant reporter expression. Conditions: 10 µM; time after transfection 48 h.
In the case of `CCCCCc1c2c(cc(O)c1C(=O)O)OC(=O)c1c(cc(OC)cc1C(=O)CCCC)O2` [Lobaric acid], the log was -0.0484.

`O=C1OCCN1/N=C/c1ccc([N+](=O)[O-])o1` [Furazolidone]: the log amounted to 0.00428. Next, `COc1ccc(NS(=O)(=O)c2ccc(N)cc2)nn1` [Sulfamethoxypyridazine]: 0.0222; `C[C@H]1O[C@@H](n2cc(F)c(=O)[nH]c2=O)[C@H](O)[C@@H]1O` [Doxifluridine Hydrochloride]: -0.0897. Turning to `CCN[C@H]1C[C@H](C)S(=O)(=O)c2sc(S(N)(=O)=O)cc21` [Dorzolamide Hydrochloride], the log came out at 0.0643. Turning to `Fc1ccc(C(c2ccc(F)cc2)N2CCN(C/C=C/c3ccccc3)CC2)cc1` [Flunarizine], the log is 0.0177. As for `O=C(N/N=C/c1cccc(O)c1)c1ccncc1` [Acroteben], the log turned out to be 0.0351. For `CCCCCCCCCCCCCCCCCCCCCCCCCCCCCCC` [Hentriacontane], the log came to 0.116.

As to `COc1n[nH]c2nncnc12` [Fluviol A], the log is -0.127. Then `O=C1CN(/N=C/c2ccc([N+](=O)[O-])o2)C(=O)N1` [Nitrofurantoin], with -0.262; and `CCC(=O)OCC(=O)[C@@]1(OC(=O)CC)[C@@H](C)C[C@H]2[C@@H]3CCC4=CC(=O)C=C[C@]4(C)[C@@]3(F)[C@@H](O)C[C@@]21C` [Betamethasone dipropionate], with -0.0949. As to `Nc1ccc(S(=O)(=O)Nc2nccs2)cc1` [Sulfathiazole], the log turned out to be 0.214. Next, `C(=N\N1CCN(C(c2ccccc2)c2ccccc2)CC1)/c1ccccn1`: 0.0131; `COc1c(C(C)C)oc2cc3oc(=O)ccc3cc12` [Peucedanin]: -0.305; `COc1cc(NS(=O)(=O)c2ccc(N)cc2)ncn1` [Sulfamonomethoxine]: -0.238.

As to `CCC[C@H](N[C@@H](C)C(=O)N1[C@H](C(=O)O)C[C@@H]2CCCC[C@@H]21)C(=O)O` [Perindopril tert-Butylamine salt], the log is -0.274. On to `C/C=C(\C)C(=O)O[C@@H]1c2c(ccc3ccc(=O)oc23)OC(C)(C)[C@@H]1OC(C)=O` [Pteryxin], for which the log worked out at 0.116. Then `CCC(NC(C)C)C(O)c1ccc(O)c2[nH]c(=O)ccc12` (stereo unspecified) [Procaterol Hydrochloride], with 0.0507. Then `CCCCN1CCCCC1C(=O)Nc1c(C)cccc1C` (stereo unspecified) [Bupivacaine], with 0.0199; and `O=C(NC1CCCCC1)c1cc(-c2ccccc2)nc2ccccc12` [Cycinchophene], with -0.0138. Consider `NS(=O)(=O)c1ccc(NC(=O)CCC(=O)O)cc1` [Sulfasuccinamide], for which the log was -0.194. For the molecule `CC(=O)Oc1cccc2c1C(=O)c1c(OC(C)=O)cc(C(=O)O)cc1C2=O` [Diacerein], the log was -0.32. `CC(C)=CCC1=C(O)C(=O)c2ccccc2C1=O` [Lapachol]: the log is -0.062. Next, `Nc1ncnc2[nH]c(=O)[nH]c12` [8-Oxoadenine]: -0.133; `OCCN1CCN(CCCN2c3ccccc3Sc3ccc(C(F)(F)F)cc32)CC1` [Fluphenazine]: 0.129. On to `COc1cc(Br)c(Cc2nccc3cc(OC)c(OC)cc23)cc1OC` [Bromopapaverine], for which the log was -0.409. Regarding `O=C(Nc1ncc([N+](=O)[O-])s1)c1cccs1` [Tenonitrozole], the log is -0.0372. On to `Cc1nc2c(c3c1[nH]c1ccccc13)C(=O)CC(C)(C)C2` [Carbacetam], for which the log is -0.769. `C[C@@H]1C[C@H]2[C@@H]3CCC4=CC(=O)C=C[C@]4(C)[C@@]3(Cl)[C@@H](O)C[C@]2(C)[C@@]1(OC(=O)c1ccco1)C(=O)CCl` [Mometasone Furoate]: the log was -0.299.

In the case of `CCOC(=O)C1=C(C)NC(C)=C(C(=O)OCC)C1c1ccccn1`, the log is -0.0451. Turning to `COc1ccc(C(=O)c2ccc(OC)cc2O)c(O)c1`, the log is 0.0669. Turning to `Cc1ncc(CSSCc2cnc(C)c(O)c2CO)c(CO)c1O` [Pyritinol], the log was -0.0904. With `COc1ccc(CCC(=O)c2c(O)cc(O[C@@H]3O[C@H](CO)[C@@H](O)[C@H](O)[C@H]3O[C@@H]3O[C@@H](C)[C@H](O)[C@@H](O)[C@H]3O)cc2O)cc1O` [Neohesperidin dihydrochalcone], the log stood at 0.077. Regarding `O=C1c2cccc3c2[C@H](CCC3)CN1[C@@H]1CN2CCC1CC2` [Palonosetron Hydrochloride], the log was determined as 0.225. Regarding `O=C(c1ccc(Cl)cc1)c1cc(NC(=O)c2cc(Cl)cc(Br)c2O)ccc1Cl` [Bromoxan], the log is 0.0502. As for `N[C@@H](Cc1c[nH]c2ccc(O)cc12)C(=O)O` [Oxitriptan], the log was 0.071.
